The values below come from paper PMC5341102.

In assay [1] the target is T1, GST-OGT-1 (C. elegans) (UniProt O18158).
T1 sequence: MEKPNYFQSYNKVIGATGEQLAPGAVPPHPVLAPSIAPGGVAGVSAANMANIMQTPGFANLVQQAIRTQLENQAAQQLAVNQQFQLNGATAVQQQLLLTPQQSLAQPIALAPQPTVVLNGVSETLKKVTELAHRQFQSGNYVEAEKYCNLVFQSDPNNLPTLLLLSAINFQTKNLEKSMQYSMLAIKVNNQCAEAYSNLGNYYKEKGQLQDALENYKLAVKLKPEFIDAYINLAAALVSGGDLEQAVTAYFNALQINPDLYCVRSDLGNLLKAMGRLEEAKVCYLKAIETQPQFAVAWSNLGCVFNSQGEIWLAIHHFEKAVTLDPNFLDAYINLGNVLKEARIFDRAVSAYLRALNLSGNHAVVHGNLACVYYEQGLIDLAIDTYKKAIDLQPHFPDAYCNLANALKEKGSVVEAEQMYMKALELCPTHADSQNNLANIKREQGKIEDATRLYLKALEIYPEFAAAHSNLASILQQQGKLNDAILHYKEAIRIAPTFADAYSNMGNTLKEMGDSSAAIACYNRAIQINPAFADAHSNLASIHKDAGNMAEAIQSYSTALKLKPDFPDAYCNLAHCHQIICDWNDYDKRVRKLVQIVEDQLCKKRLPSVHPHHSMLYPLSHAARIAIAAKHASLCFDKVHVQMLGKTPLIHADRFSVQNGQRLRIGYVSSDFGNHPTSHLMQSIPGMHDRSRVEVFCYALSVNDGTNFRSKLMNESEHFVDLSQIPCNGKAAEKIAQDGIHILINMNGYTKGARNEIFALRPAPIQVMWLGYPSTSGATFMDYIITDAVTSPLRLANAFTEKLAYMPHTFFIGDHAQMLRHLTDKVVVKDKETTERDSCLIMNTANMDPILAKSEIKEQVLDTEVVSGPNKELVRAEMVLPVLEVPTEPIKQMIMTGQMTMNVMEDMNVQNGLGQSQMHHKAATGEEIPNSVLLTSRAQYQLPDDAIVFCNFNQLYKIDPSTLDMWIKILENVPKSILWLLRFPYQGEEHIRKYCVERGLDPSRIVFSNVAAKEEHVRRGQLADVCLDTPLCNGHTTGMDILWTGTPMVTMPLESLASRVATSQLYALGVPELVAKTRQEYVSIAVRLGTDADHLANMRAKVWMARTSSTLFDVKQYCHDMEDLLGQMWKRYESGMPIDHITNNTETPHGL
As to the kind of experiment: pull-down; GST or GST-OGT-1 purified from E. coli BL21(DE3), incubated with whole worm lysates of LD1(ldls7) and glutathione Sepharose 4B beads; extensive washes; western blotting with anti-GFP antibody; only the target purified. A general note: Immunoblotting shows a protein as a band on a membrane.

For assay [2], the target named is SKN-1(B/C)::GFP (C. elegans). The experiment in a line: co-IP; whole extracts of SKN-1B/C::GFP worms (with or without tBHP treatment) immunoprecipitated with anti-GFP antibody overnight at 4 °C, protein A/G magnetic beads; lysis buffer 50 mM Tris-HCl pH 7.5, 150 mM NaCl, 1 mM EDTA, 0.5% NP-40; immunoblotting with anti-OGT antibody; IgG as negative control.

These are yes or no findings as the source states them, for the method shown. Binding seen in cells or lysates may run through a third protein. A result given as binding can be weak or reduced; the word gives no strength. For some assays here: Sequences can lack the tags named with a protein.

In the case of SKN-1(B/C)::GFP (C. elegans), the binding entry in assay [1] was “binds”.

B1: OGT-1 (enzyme, UniProt O18158 1-1151)
chain: MEKPNYFQSYNKVIGATGEQLAPGAVPPHPVLAPSIAPGGVAGVSAANMANIMQTPGFANLVQQAIRTQLENQAAQQLAVNQQFQLNGATAVQQQLLLTPQQSLAQPIALAPQPTVVLNGVSETLKKVTELAHRQFQSGNYVEAEKYCNLVFQSDPNNLPTLLLLSAINFQTKNLEKSMQYSMLAIKVNNQCAEAYSNLGNYYKEKGQLQDALENYKLAVKLKPEFIDAYINLAAALVSGGDLEQAVTAYFNALQINPDLYCVRSDLGNLLKAMGRLEEAKVCYLKAIETQPQFAVAWSNLGCVFNSQGEIWLAIHHFEKAVTLDPNFLDAYINLGNVLKEARIFDRAVSAYLRALNLSGNHAVVHGNLACVYYEQGLIDLAIDTYKKAIDLQPHFPDAYCNLANALKEKGSVVEAEQMYMKALELCPTHADSQNNLANIKREQGKIEDATRLYLKALEIYPEFAAAHSNLASILQQQGKLNDAILHYKEAIRIAPTFADAYSNMGNTLKEMGDSSAAIACYNRAIQINPAFADAHSNLASIHKDAGNMAEAIQSYSTALKLKPDFPDAYCNLAHCHQIICDWNDYDKRVRKLVQIVEDQLCKKRLPSVHPHHSMLYPLSHAARIAIAAKHASLCFDKVHVQMLGKTPLIHADRFSVQNGQRLRIGYVSSDFGNHPTSHLMQSIPGMHDRSRVEVFCYALSVNDGTNFRSKLMNESEHFVDLSQIPCNGKAAEKIAQDGIHILINMNGYTKGARNEIFALRPAPIQVMWLGYPSTSGATFMDYIITDAVTSPLRLANAFTEKLAYMPHTFFIGDHAQMLRHLTDKVVVKDKETTERDSCLIMNTANMDPILAKSEIKEQVLDTEVVSGPNKELVRAEMVLPVLEVPTEPIKQMIMTGQMTMNVMEDMNVQNGLGQSQMHHKAATGEEIPNSVLLTSRAQYQLPDDAIVFCNFNQLYKIDPSTLDMWIKILENVPKSILWLLRFPYQGEEHIRKYCVERGLDPSRIVFSNVAAKEEHVRRGQLADVCLDTPLCNGHTTGMDILWTGTPMVTMPLESLASRVATSQLYALGVPELVAKTRQEYVSIAVRLGTDADHLANMRAKVWMARTSSTLFDVKQYCHDMEDLLGQMWKRYESGMPIDHITNNTETPHGL
As to B1, the binding result in assay [2] was “binds”.
